PubChem BioAssay AID743454 | Peter MacCallum Cancer Centre | 2014
In all, the deposit lists about 18,000 reagents; shown is an unselected part. 450 of them (2.5%) count as active. 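Single biological run; no consistent viability z cut-off exists, so the class columns, not z-scores, define the calls.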

Screen: 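Genes whose loss kills vorinostat-resistant colon cancer cells under vorinostat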 (primary screen)
System: human HCT116-VR colon cancer cells, selected for vorinostat resistance
Knock-down reagent: siRNA pool against human genes, 40 nM siRNA pool
Timing: vorinostat for 24 h, read-out about 72 h after transfection
Challenge: vorinostat at 2.5 µM final
Measured: 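Two measures, CellTiter-Fluor viability and luminescent caspase 3/7 activity, each as fold change against same-plate mock wells, mean of duplicates, then screen-wide robust z-score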
Direction: viability robust z-score: higher = more viable cells than screen typical; caspase robust z-score: higher = more caspase 3/7 activity than screen typical
Hit rule: 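Hits are knock-downs in viability class RV1/RV2 or caspase class CA1/CA2, excluding ones that killed cells in the no-drug cell-count arm; hits then retested with single siRNAs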

PAXX (PAXX non-homologous end joining factor) [SID134326437] → viability hit class = no change; caspase hit class = no change; viability robust z-score = 0.26; caspase robust z-score = 2.47; activity call = inactive
BRF1 (BRF1 general transcription factor IIIB subunit) [SID135623332] → viability hit class = no change; caspase hit class = no change; viability robust z-score = -1.34; caspase robust z-score = 2.23; activity call = inactive
MYMK (myomaker, myoblast fusion factor) [SID135624820] → viability hit class = no change; caspase hit class = no change; viability robust z-score = 0.88; caspase robust z-score = 3.43; activity call = inactive
YBEY (ybeY metalloendoribonuclease) [SID152147874] → viability hit class = no change; caspase hit class = no change; viability robust z-score = -0.76; caspase robust z-score = -0.61; activity call = inactive
NFATC2 (nuclear factor of activated T cells 2) [SID152156339] → viability hit class = no change; caspase hit class = no change; viability robust z-score = 0.52; caspase robust z-score = -0.31; activity call = inactive
SFPQ (splicing factor proline and glutamine rich) [SID135621199] → viability hit class = no change; caspase hit class = no change; viability robust z-score = -1.73; caspase robust z-score = 1.92; activity call = inactive
TAS2R60 (taste 2 receptor member 60) [SID135623492] → viability hit class = no change; caspase hit class = no change; viability robust z-score = 1.85; caspase robust z-score = 0.08; activity call = inactive
NR5A1 (nuclear receptor subfamily 5 group A member 1) [SID134309880] → viability hit class = no change; caspase hit class = no change; viability robust z-score = -0.27; caspase robust z-score = 1.92; activity call = inactive
FAM135B (family with sequence similarity 135 member B) [SID152155671] → viability hit class = no change; caspase hit class = no change; viability robust z-score = -0.12; caspase robust z-score = 1.88; activity call = inactive

Already shown: an excerpt of the list.
TAS2R60 (taste 2 receptor member 60) [SID135623492] → viability hit class = no change; caspase hit class = no change; viability robust z-score = 1.85; caspase robust z-score = 0.08; activity call = inactive
NR5A1 (nuclear receptor subfamily 5 group A member 1) [SID134309880] → viability hit class = no change; caspase hit class = no change; viability robust z-score = -0.27; caspase robust z-score = 1.92; activity call = inactive

The list goes on.
IMP3 (IMP U3 small nucleolar ribonucleoprotein 3) [SID152151318] → viability hit class = no change; caspase hit class = no change; viability robust z-score = -1.22; caspase robust z-score = 0.26; activity call = inactive
CCDC187 (coiled-coil domain containing 187) [SID134329235] → viability hit class = no change; caspase hit class = no change; viability robust z-score = 0.8; caspase robust z-score = 1; activity call = inactive
IL20RA (interleukin 20 receptor subunit alpha) [SID135621479] → viability hit class = no change; caspase hit class = no change; viability robust z-score = 0.2; caspase robust z-score = -0.28; activity call = inactive
OR14J1 (olfactory receptor family 14 subfamily J member 1) [SID134329980] → viability hit class = no change; caspase hit class = no change; viability robust z-score = 0.55; caspase robust z-score = -0.77; activity call = inactive
IGFBP7 (insulin like growth factor binding protein 7) [SID135621617] → viability hit class = no change; caspase hit class = no change; viability robust z-score = 0.02; caspase robust z-score = 0.36; activity call = inactive
SORCS3 (sortilin related VPS10 domain containing receptor 3) [SID134317183] → viability hit class = no change; caspase hit class = no change; viability robust z-score = 0.05; caspase robust z-score = -1.08; activity call = inactive
AQP10 (aquaporin 10) [SID134321420] → viability hit class = no change; caspase hit class = no change; viability robust z-score = 0.16; caspase robust z-score = 1.02; activity call = inactive
GJC1 (gap junction protein gamma 1) [SID152153259] → viability hit class = no change; caspase hit class = no change; viability robust z-score = 2.29; caspase robust z-score = 0.64; activity call = inactive
GLB1L (galactosidase beta 1 like) [SID134320380] → viability hit class = no change; caspase hit class = no change; viability robust z-score = -0.5; caspase robust z-score = -0.42; activity call = inactive
CACNA2D2 [SID152150636] → viability hit class = no change; caspase hit class = no change; viability robust z-score = -0.42; caspase robust z-score = -0.96; activity call = inactive
MED4 (mediator complex subunit 4) [SID134324338] → viability hit class = no change; caspase hit class = no change; viability robust z-score = -0.77; caspase robust z-score = -0.08; activity call = inactive
ACO2 (aconitase 2) [SID134314297] → viability hit class = RV2 (reduced viability); caspase hit class = no change; viability robust z-score = -3.17; caspase robust z-score = -1.21; activity call = active
